No constants are given. Whether binding was seen depends on the method and setting. Some entries that bind do so weakly or less than the wild type.
Assays:
H-Ras (12V) [1] = target: H-Ras (12V) (UniProt P01112); assay: chemical cross-linking, release from 34-43 kDa complexes, immunoblot
H-Ras (12V) [2] = target: H-Ras (12V) (UniProt P01112); assay: cross-linking of membranes, release from 34-43 kDa band, immunoblot (FIG. 4)
[3] = target: wild-type H-Ras of untransformed Rat-1 cells (UniProt P20171); assay: as above
[4] = target: wild-type H-Ras of untransformed Rat-1 cells (UniProt P20171); assay: DSP cross-linking, purification of 34-43 kDa complexes, release by DTT, gel staining

Sequences of proteins named here, by UniProt entry; tags and fusion partners are left off. A change or cut given only in a name is not applied to a line headed by its entry. Residues count along the entry.
UniProt P08699, residues 2-262: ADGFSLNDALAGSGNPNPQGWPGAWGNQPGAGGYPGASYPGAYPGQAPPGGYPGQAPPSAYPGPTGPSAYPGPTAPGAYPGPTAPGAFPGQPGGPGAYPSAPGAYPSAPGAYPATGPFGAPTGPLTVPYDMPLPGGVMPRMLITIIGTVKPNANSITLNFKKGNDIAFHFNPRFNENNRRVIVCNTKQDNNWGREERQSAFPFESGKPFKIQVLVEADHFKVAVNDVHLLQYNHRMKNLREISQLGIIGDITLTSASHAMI
UniProt P11762: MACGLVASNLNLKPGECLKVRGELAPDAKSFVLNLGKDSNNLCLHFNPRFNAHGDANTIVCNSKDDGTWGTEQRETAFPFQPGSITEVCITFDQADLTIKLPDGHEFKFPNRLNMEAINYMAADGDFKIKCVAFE

| Substance | binding (H-Ras (12V) [1]) | binding (H-Ras (12V) [2]) | binding [3] | binding [4] |
| --- | --- | --- | --- | --- |
| galectin-3 of Rat-1 derived cells (from UniProt P08699 2-262) | binds | binds | binds | – |
| rat galectin-1 (from UniProt P11762 2-135) | – | – | binds | binds |

From US20040072258A1, “Isoprenoid-dependent ras anchorage (idra) proteins” (priority 2003, published 2004)
